Data: patent US7205304B2, “Sulfonyl-Derivatives as novel inhibitors of histone deacetylase” (Janssen Pharmaceutica N.V., priority 2002, dated 2007)
For at least one compound, name, drawing or mass did not settle the structure.

Target: histone deacetylase (HeLa nuclear extracts)
Experiment: In vitro assay for inhibition of histone deacetylase
Type: biochemical
Conditions: [3H]acetylated histone H4 peptide substrate
Protocol: The in vitro assay for inhibition of histone deacetylase (see example C.1) measures the inhibition of HDAC enzymatic activity obtained with the compounds of formula (I).
HeLa nuclear extracts (supplier: Biomol) were incubated at 60 μg/ml with 2×10^−8 M of radiolabeled peptide substrate. As a substrate for measuring HDAC activity a synthetic peptide, i.e. the amino acids 14–21 of histone H4, was used. The substrate is biotinylated at the NH2-terminal part with a 6-aminohexanoic acid spacer, and is protected at the COOH-terminal part by an amide group and specifically [^3H]acetylated at lysine 16. The substrate, biotin-(6-aminohexanoic)Gly-Ala-([^3H]-acetyl-Lys-Arg-His-Arg-Lys-Val-NH2), was added in a buffer containing 25 mM Hepes, 1 M sucrose, 0.1 mg/ml BSA and 0.01% Triton X-100 at pH 7.4. […] After mixing and centrifugation, the radioactivity in an aliquot of the upper (organic) phase was counted in a β-counter.
For each experiment, controls (containing HeLa nuclear extract and DMSO without compound), a blank incubation (containing DMSO but no HeLa nuclear extract or compound) and samples (containing compound dissolved in DMSO and HeLa nuclear extract) were run in parallel. […] For each sample the radioactivity was expressed as a percentage of the mean value of the controls. […] Herein the effects of test compounds are expressed as pIC50 (the negative log value of the IC50-value).

O=C(NO)c1ccc(N2CCN(S(=O)(=O)c3ccccc3[N+](=O)[O-])CC2)c([N+](=O)[O-])c1 [Compound 23]
Enzyme activity pIC50: >5

O=C(NO)c1ccc(N2CCN(S(=O)(=O)c3cccc([N+](=O)[O-])c3)CC2)c([N+](=O)[O-])c1 [Compound 24]
Enzyme activity pIC50: >5
